These are yes or no findings as the source states them, for the method shown. In cells and extracts the contact can be indirect. These calls come from enrichment with a bait or labelling near it, and not all partners need be listed. Sequences can lack the tags named with a protein.
Biological target: T1, DENR-3×FLAG-NeonGreen-dTAG (mouse (endogenous in NIH/3T3)) (UniProt Q9CQJ6)
T1 sequence: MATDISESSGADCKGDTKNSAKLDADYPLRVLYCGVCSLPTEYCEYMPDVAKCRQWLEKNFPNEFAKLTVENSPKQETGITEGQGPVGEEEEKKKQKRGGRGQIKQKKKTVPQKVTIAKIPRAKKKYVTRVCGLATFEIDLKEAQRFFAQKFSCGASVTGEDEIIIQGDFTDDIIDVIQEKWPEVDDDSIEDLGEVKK
Assay: affinity purification with mass spectrometry

B1: MCTS2 (protein, UniProt Q9CQ21 1-181)
chain: MFKKFDEKESVSNCIQLKTSVIKGIKSQLTEQFPGIEPWLNQIMPKKDPVKIVRCHEHMEILTVNGELLFFRQRKGPFYPTLRLLHKYPFILPHQQVDKGAIKFVLSGANIMCPGLTSPGAKLYTAAVDTIVAVMAEGKEHALCVGVMKMAAADIEKINKGIGIENIHYLNDGLWHMKTYK
Q: For B1, which binding is on record?
A: binds

Reference: publication doi:10.1101/2024.06.05.597545
